## Library screen at single concentrations

The chains behind the UniProt entries cited, without tags or fusion partners.
UniProt I6X8D2, whole entry: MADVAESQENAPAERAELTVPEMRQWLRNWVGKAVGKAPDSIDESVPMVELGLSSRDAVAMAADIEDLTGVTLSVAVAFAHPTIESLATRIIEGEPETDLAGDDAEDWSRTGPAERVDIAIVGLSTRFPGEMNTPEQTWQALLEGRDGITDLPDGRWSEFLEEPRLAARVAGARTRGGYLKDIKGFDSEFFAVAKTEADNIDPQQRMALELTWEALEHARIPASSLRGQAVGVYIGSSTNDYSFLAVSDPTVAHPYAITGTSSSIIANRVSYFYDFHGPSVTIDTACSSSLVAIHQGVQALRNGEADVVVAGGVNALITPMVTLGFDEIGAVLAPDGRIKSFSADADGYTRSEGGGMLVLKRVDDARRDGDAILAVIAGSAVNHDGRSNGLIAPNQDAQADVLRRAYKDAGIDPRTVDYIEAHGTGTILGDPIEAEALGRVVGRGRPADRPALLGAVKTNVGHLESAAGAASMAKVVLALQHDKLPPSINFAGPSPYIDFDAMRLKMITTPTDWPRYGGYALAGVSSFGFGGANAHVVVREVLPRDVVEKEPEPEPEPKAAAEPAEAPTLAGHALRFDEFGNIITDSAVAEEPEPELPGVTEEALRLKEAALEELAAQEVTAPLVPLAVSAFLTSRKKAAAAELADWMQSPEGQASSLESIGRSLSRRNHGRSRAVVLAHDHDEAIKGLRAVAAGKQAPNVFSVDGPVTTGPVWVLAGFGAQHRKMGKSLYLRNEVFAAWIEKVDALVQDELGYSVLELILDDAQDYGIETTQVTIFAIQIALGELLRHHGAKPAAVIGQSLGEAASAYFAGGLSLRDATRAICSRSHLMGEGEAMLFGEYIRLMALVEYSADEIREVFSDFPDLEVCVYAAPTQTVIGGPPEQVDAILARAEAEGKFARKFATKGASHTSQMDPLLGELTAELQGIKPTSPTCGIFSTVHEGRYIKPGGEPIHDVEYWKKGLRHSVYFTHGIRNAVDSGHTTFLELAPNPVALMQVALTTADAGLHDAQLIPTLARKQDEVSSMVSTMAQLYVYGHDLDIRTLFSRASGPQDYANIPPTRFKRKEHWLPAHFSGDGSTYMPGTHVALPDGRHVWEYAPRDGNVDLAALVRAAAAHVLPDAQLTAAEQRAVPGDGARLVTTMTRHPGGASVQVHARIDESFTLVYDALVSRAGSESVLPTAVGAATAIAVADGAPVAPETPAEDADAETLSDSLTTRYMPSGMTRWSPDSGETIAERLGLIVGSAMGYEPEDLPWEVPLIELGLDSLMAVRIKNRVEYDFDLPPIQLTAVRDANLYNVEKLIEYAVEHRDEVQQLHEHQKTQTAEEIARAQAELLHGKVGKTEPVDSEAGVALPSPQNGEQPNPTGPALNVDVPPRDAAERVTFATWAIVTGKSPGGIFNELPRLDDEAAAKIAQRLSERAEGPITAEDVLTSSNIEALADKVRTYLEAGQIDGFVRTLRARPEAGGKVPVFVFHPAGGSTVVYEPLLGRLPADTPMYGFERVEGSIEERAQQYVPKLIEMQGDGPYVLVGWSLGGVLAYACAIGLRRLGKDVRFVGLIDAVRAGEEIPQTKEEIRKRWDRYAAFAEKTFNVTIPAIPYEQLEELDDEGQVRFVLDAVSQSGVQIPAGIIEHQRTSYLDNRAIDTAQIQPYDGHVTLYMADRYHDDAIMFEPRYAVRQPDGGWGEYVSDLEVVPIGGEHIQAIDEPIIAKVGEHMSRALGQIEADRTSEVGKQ

From ChEMBL document CHEMBL3988442, “University of Dundee, Small-Polar-MMV Screening Library” (2021).

Each number is a percent effect as filed. The controls that fix the scale are not given in the record; negative values are as filed. This is an unselected part of the compounds tested.

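Enzyme assay of the thioesterase domain of polyketide synthase 13; the read-out is not stated. Target: Polyketide synthase Pks13, Mycobacterium tuberculosis (UniProt I6X8D2). Concentration: 30 µM. The record gives no direction; the compounds picked for IC50 retests had high values, so higher reads as stronger inhibition. Of about 67,000 compounds tested this way, about 300 (0.46%) reached 50% or more in at least one test.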

N[C@H]1CC[C@@H](n2cc(C(=O)NC3CCc4ccccc4C3)nn2)CC1 (stereo partly shown) read -7.754%. For COCC(=O)N1CCN(Cc2cc(-c3ccncc3)nn2C)CC1 the result was 8.842%. O=C([C@@H]1COC[C@H]2CN(C3CCOCC3)C[C@H]21)N1CCOCC1 gave -27.02%. O=C(NCC1CCOCC1)[C@@H]1C[C@@H]2[C@@H](CCN2Cc2ccoc2)O1 read -8.153%.

Result for COc1cc(CNCc2ccco2)ccc1OCCO was -18.3%. For CCN(Cc1ccoc1)C(C(N)=O)c1ccc(C#N)cc1 (stereo not shown) the result was -11.86%. CCCNC(=O)C(C)N1CCC(C(=O)Nc2cnn(CC)c2)CC1 (stereo not shown) read 7.052%. For COc1ccccc1-c1noc(CCC(=O)NC(C)Cn2cccn2)n1 (stereo not shown) the result was -20.92%.

COc1ccc(CN2C[C@@H]3CN(C(=O)c4ccsc4)C[C@@H]3C2=O)cc1 gave -18.8%. With CCN(CC)c1ccc(-c2ccc(C)c(S(N)(=O)=O)c2)nn1 the screen gave -31.76%. Result for COCCN(Cc1ccoc1)C(=O)c1c(F)cccc1F was -14.37%. Cc1ccc(C(C(=O)NCCc2nc(C)cc(C)n2)N(C)C)cc1 (stereo not shown) read -20.33%.

With CCC(C)NC(=O)Nc1ccc(CN2CCOC2=O)cc1 (stereo not shown) the screen gave -9.682%. COCc1ccccc1NCc1csc(NC(C)=O)n1 gave -9.454%. CCN1CC2(CC1=O)CN(C(=O)c1ccco1)CCN(C(=O)C(C)C)C2 (stereo not shown) gave -6.688%. CCn1nc2c(cc1=O)CN(CC(=O)Nc1nccs1)CC2 gave 17.26%.

Cc1nn(C)cc1CN1CCCn2nc(CNC(=O)C3CCC3)cc2C1 read -1.222%. For Cc1ccc(CN2CCC3(CC2)CN(C(=O)c2cnccn2)CCO3)o1 the result was -22.83%. For O=C(C1CCC1)N1C[C@@H](c2ccsc2)[C@@H]2CN(C3CCCCC3)CC[C@@H]21 the result was -6.39%. Cc1cnc(NC2CCc3c(ccc(=O)n3C)C2)nc1 (stereo not shown) read -21.13%.

Result for Cc1ccc(-c2nc(CCNCc3ccncc3)co2)cc1 was -9.586%. For O=C([C@@H]1COC[C@H]2CN(CC3CCCC3)C[C@H]21)N1CCOCC1 the result was -31.71%. COc1ccc(C2(C(=O)N3CC(c4cccnc4)C3)CC2(C)C)cc1 (stereo not shown) read 1.375%. With CN(C)S(=O)(=O)N1CCO[C@H]2[C@H](Oc3cccnc3)CC[C@@H]21 the screen gave -13.6%.

With O=C1CCC2(CCNCC2)CN1CCCOc1cccnc1 the screen gave -7.285%. CS(=O)(=O)N1CCCC(Cc2cncc(Br)c2)CC1 (stereo not shown) gave 18.75%. Result for CCOCC(O)CN1CCN(C(=O)c2ccccc2Cl)CC1 (stereo not shown) was -10.16%. With COc1ccccc1N1CCN(CC(=O)NC(C)c2ccco2)CC1 (stereo not shown) the screen gave -7.206%.

COc1cc(OCC(=O)NCCc2ccccc2)cc(OC)c1OC gave 4.488%. CC(C(=O)Nc1ccnn1C(C)C)N1CCc2nn(C)c(=O)cc2C1 (stereo not shown) read -8.072%. CCn1nc(C)c(S(=O)(=O)N(C)c2ccc(Cl)cn2)c1C read -8.397%. With O=C(c1cc(=O)[nH]c(=O)[nH]1)N1CCCCC1c1nc2cc(F)ccc2[nH]1 (stereo not shown) the screen gave -8.586%.

Result for CN(CC1(C)COC1)C(=O)c1cc(-c2ccnn2C)nc2ccccc12 was 2.351%. Cc1nn(C)c(Cl)c1C1CCCN1C(=O)c1ccncc1 (stereo not shown) read -6.457%. For Cn1ccnc1C(=O)N1CCC(Cn2cc(-c3ccsc3)nn2)CC1 the result was -22.38%. With CC(NC(=O)Cc1ccccc1F)C(=O)N1CCS(=O)(=O)CC1 (stereo not shown) the screen gave -22.56%.

With COc1ccc(Cn2cc(C(C)O)nn2)cc1 (stereo not shown) the screen gave -33.75%. With O=C(NCC(=O)N1CCCC1)c1nc(Cc2c(Cl)cccc2Cl)no1 the screen gave 13.97%. COCCN1CCN(CC(O)c2cc(OC)ccc2OC)CC1 (stereo not shown) read -10.05%.

Repeated from the top, 3 entries:

SMILES	effect
N[C@H]1CC[C@@H](n2cc(C(=O)NC3CCc4ccccc4C3)nn2)CC1 (stereo partly shown)	-7.754%
COCC(=O)N1CCN(Cc2cc(-c3ccncc3)nn2C)CC1	8.842%
O=C([C@@H]1COC[C@H]2CN(C3CCOCC3)C[C@H]21)N1CCOCC1	-27.02%